In assay [1] the target is T1, Ubiquitin-specific protease 6 N-terminal-like protein (USP6NL) (human (endogenous in HCT116)) (UniProt Q92738).
T1 sequence: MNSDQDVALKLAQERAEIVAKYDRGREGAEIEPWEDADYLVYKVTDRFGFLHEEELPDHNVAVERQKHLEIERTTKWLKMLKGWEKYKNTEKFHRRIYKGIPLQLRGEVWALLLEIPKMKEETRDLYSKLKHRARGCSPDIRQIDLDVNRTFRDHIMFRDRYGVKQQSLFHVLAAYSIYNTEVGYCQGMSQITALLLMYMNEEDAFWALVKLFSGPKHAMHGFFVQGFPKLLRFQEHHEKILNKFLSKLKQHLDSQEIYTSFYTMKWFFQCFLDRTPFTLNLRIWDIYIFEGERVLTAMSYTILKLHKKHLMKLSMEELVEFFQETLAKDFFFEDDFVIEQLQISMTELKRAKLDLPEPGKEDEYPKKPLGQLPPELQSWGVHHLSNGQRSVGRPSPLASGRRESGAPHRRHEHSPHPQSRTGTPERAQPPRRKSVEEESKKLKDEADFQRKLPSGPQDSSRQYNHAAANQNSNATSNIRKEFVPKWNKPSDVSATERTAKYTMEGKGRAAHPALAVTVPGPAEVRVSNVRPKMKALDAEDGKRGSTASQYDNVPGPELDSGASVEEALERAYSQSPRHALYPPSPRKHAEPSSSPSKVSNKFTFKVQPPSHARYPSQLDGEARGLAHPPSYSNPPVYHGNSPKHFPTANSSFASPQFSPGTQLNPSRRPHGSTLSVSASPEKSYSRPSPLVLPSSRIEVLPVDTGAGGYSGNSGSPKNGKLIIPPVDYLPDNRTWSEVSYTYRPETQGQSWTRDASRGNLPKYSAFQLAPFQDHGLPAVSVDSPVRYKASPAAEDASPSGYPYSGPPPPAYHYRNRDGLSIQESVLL
Put plainly: co-IP; 100 μg total protein of the lysis supernatant of HCT116 cells transfected with siUSP6NL; protein G-Agarose beads; immunoprecipitated with anti-USP6NL, anti-β-catenin or control IgG overnight at 4 °C; immunoblot for USP6NL and β-catenin. Background: In western blotting, separated proteins are transferred to a membrane and probed.

The chains behind the UniProt entries cited, without tags or fusion partners.
UniProt P35222: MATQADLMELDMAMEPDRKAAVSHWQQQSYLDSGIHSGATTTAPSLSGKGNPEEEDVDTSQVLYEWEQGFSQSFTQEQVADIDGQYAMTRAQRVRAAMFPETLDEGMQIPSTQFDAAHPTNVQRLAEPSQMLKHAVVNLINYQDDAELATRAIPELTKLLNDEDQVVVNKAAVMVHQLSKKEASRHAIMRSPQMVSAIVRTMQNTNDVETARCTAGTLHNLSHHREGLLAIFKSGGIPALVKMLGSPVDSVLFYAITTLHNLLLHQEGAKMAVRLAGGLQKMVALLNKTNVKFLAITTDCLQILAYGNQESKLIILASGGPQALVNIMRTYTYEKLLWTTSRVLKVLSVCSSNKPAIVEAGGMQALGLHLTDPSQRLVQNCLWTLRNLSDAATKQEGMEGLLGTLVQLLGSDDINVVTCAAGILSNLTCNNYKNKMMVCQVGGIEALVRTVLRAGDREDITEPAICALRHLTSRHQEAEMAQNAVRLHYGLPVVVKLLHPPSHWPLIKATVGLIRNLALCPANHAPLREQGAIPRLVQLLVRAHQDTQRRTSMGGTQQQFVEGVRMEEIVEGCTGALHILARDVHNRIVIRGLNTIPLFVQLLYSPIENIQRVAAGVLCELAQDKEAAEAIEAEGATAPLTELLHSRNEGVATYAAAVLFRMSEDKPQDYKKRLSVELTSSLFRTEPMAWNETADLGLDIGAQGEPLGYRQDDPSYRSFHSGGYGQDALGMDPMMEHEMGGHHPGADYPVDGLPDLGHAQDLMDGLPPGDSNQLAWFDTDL

Assay [2] has as its target β-catenin (human (endogenous in HCT116)) (UniProt P35222). The description is as above.

No constants are given. Whether binding was seen depends on the method and setting. In cells and extracts the contact can be indirect. Some results given as binding are weak or reduced against the parent protein; the word gives no strength.

As for β-catenin (from UniProt P35222 1-781), in assay [1], the binding entry was “binds”.

B1: Ubiquitin-specific protease 6 N-terminal-like protein (USP6NL) (protein, UniProt Q92738 1-828)
chain: MNSDQDVALKLAQERAEIVAKYDRGREGAEIEPWEDADYLVYKVTDRFGFLHEEELPDHNVAVERQKHLEIERTTKWLKMLKGWEKYKNTEKFHRRIYKGIPLQLRGEVWALLLEIPKMKEETRDLYSKLKHRARGCSPDIRQIDLDVNRTFRDHIMFRDRYGVKQQSLFHVLAAYSIYNTEVGYCQGMSQITALLLMYMNEEDAFWALVKLFSGPKHAMHGFFVQGFPKLLRFQEHHEKILNKFLSKLKQHLDSQEIYTSFYTMKWFFQCFLDRTPFTLNLRIWDIYIFEGERVLTAMSYTILKLHKKHLMKLSMEELVEFFQETLAKDFFFEDDFVIEQLQISMTELKRAKLDLPEPGKEDEYPKKPLGQLPPELQSWGVHHLSNGQRSVGRPSPLASGRRESGAPHRRHEHSPHPQSRTGTPERAQPPRRKSVEEESKKLKDEADFQRKLPSGPQDSSRQYNHAAANQNSNATSNIRKEFVPKWNKPSDVSATERTAKYTMEGKGRAAHPALAVTVPGPAEVRVSNVRPKMKALDAEDGKRGSTASQYDNVPGPELDSGASVEEALERAYSQSPRHALYPPSPRKHAEPSSSPSKVSNKFTFKVQPPSHARYPSQLDGEARGLAHPPSYSNPPVYHGNSPKHFPTANSSFASPQFSPGTQLNPSRRPHGSTLSVSASPEKSYSRPSPLVLPSSRIEVLPVDTGAGGYSGNSGSPKNGKLIIPPVDYLPDNRTWSEVSYTYRPETQGQSWTRDASRGNLPKYSAFQLAPFQDHGLPAVSVDSPVRYKASPAAEDASPSGYPYSGPPPPAYHYRNRDGLSIQESVLL
In the case of B1, in assay [2], the binding result is on record as “binds”.

Source of the values: article PMC6469084.
